Laboratory results published in paper PMC3066133.
No constants are given. Whether binding was seen depends on the method and setting. In cells and extracts the contact can be indirect. A yes stands for co-enrichment or nearness to the bait. Other partners may have been found.

B1: ERp5 (protein, UniProt Q15084 20-440)
chain: LYSSSDDVIELTPSNFNREVIQSDSLWLVEFYAPWCGHCQRLTPEWKKAATALKDVVKVGAVDADKHHSLGGQYGVQGFPTIKIFGSNKNRPEDYQGGRTGEAIVDAALSALRQLVKDRLGGRSGGYSSGKQGRSDSSSKKDVIELTDDSFDKNVLDSEDVWMVEFYAPWCGHCKNLEPEWAAAASEVKEQTKGKVKLAAVDATVNQVLASRYGIRGFPTIKIFQKGESPVDYDGGRTRSDIVSRALDLFSDNAPPPELLEIINEDIAKRTCEEHQLCVVAVLPHILDTGAAGRNSYLEVLLKLADKYKKKMWGWLWTEAGAQSELETALGIGGFGYPAMAAINARKMKFALLKGSFSEQGINEFLRELSFGRGSTAPVGGGAFPTIVEREPWDGRDGELPVEDDIDLSDVELDDLGKDEL
B2: CHPF2 (protein, UniProt Q9P2E5 1-772)
chain: MRLSSLLALLRPALPLILGLSLGCSLSLLRVSWIQGEGEDPCVEAVGERGGPQNPDSRARLDQSDEDFKPRIVPYYRDPNKPYKKVLRTRYIQTELGSRERLLVAVLTSRATLSTLAVAVNRTVAHHFPRLLYFTGQRGARAPAGMQVVSHGDERPAWLMSETLRHLHTHFGADYDWFFIMQDDTYVQAPRLAALAGHLSINQDLYLGRAEEFIGAGEQARYCHGGFGYLLSRSLLLRLRPHLDGCRGDILSARPDEWLGRCLIDSLGVGCVSQHQGQQYRSFELAKNRDPEKEGSSAFLSAFAVHPVSEGTLMYRLHKRFSALELERAYSEIEQLQAQIRNLTVLTPEGEAGLSWPVGLPAPFTPHSRFEVLGWDYFTEQHTFSCADGAPKCPLQGASRADVGDALETALEQLNRRYQPRLRFQKQRLLNGYRRFDPARGMEYTLDLLLECVTQRGHRRALARRVSLLRPLSRVEILPMPYVTEATRVQLVLPLLVAEAAAAPAFLEAFAANVLEPREHALLTLLLVYGPREGGRGAPDPFLGVKAAAAELERRYPGTRLAWLAVRAEAPSQVRLMDVVSKKHPVDTLFFLTTVWTRPGPEVLNRCRMNAISGWQAFFPVHFQEFNPALSPQRSPPGPPGAGPDPPSPPGADPSRGAPIGGRFDRQASAEGCFYNADYLAARARLAGELAGQEEEEALEGLEVMDVFLRFSGLHLFRAVEPGLVQKFSLRDCSPRLSEELYHRCRLSNLEGLGGRAQLAMALFEQEQANST
B3: OS9 (protein, UniProt Q13438 26-667)
chain: GGVGSLNLEELSEMRYGIEILPLPVMGGQSQSSDVVIVSSKYKQRYECRLPAGAIHFQREREEETPAYQGPGIPELLSPMRDAPCLLKTKDWWTYEFCYGRHIQQYHMEDSEIKGEVLYLGYYQSAFDWDDETAKASKQHRLKRYHSQTYGNGSKCDLNGRPREAEVRFLCDEGAGISGDYIDRVDEPLSCSYVLTIRTPRLCPHPLLRPPPSAAPQAILCHPSLQPEEYMAYVQRQADSKQYGDKIIEELQDLGPQVWSETKSGVAPQKMAGASPTKDDSKDSDFWKMLNEPEDQAPGGEEVPAEEQDPSPEAADSASGAPNDFQNNVQVKVIRSPADLIRFIEELKGGTKKGKPNIGQEQPVDDAAEVPQREPEKERGDPERQREMEEEEDEDEDEDEDEDERQLLGEFEKELEGILLPSDRDRLRSEVKAGMERELENIIQETEKELDPDGLKKESERDRAMLALTSTLNKLIKRLEEKQSPELVKKHKKKRVVPKKPPPSPQPTEEDPEHRVRVRVTKLRLGGPNQDLTVLEMKRENPQLKQIEGLVKELLEREGLTAAGKIEIKIVRPWAEGTEEGARWLTDEDTRNLKEIFFNILVPGAEEAQKERQRQKELESNYRRVWGSPGGEGTGDLDEFDF
B4: EXT2 (protein, UniProt Q93063 1-718)
chain: MCASVKYNIRGPALIPRMKTKHRIYYITLFSIVLLGLIATGMFQFWPHSIESSNDWNVEKRSIRDVPVVRLPADSPIPERGDLSCRMHTCFDVYRCGFNPKNKIKVYIYALKKYVDDFGVSVSNTISREYNELLMAISDSDYYTDDINRACLFVPSIDVLNQNTLRIKETAQAMAQLSRWDRGTNHLLFNMLPGGPPDYNTALDVPRDRALLAGGGFSTWTYRQGYDVSIPVYSPLSAEVDLPEKGPGPRQYFLLSSQVGLHPEYREDLEALQVKHGESVLVLDKCTNLSEGVLSVRKRCHKHQVFDYPQVLQEATFCVVLRGARLGQAVLSDVLQAGCVPVVIADSYILPFSEVLDWKRASVVVPEEKMSDVYSILQSIPQRQIEEMQRQARWFWEAYFQSIKAIALATLQIINDRIYPYAAISYEEWNDPPAVKWGSVSNPLFLPLIPPQSQGFTAIVLTYDRVESLFRVITEVSKVPSLSKLLVVWNNQNKNPPEDSLWPKIRVPLKVVRTAENKLSNRFFPYDEIETEAVLAIDDDIIMLTSDELQFGYEVWREFPDRLVGYPGRLHLWDHEMNKWKYESEWTNEVSMVLTGAAFYHKYFNYLYTYKMPGDIKNWVDAHMNCEDIAMNFLVANVTGKAVIKVTPRKKFKCPECTAIDGLSLDQTHMVERSECINKFASVFGTMPLKVVEHRADPVLYKDDFPEKLKSFPNIGSL
B5: ERp72 (protein, UniProt P13667 21-645)
chain: VAGAEGPDEDSSNRENAIEDEEEEEEEDDDEEEDDLEVKEENGVLVLNDANFDNFVADKDTVLLEFYAPWCGHCKQFAPEYEKIANILKDKDPPIPVAKIDATSASVLASRFDVSGYPTIKILKKGQAVDYEGSRTQEEIVAKVREVSQPDWTPPPEVTLVLTKENFDEVVNDADIILVEFYAPWCGHCKKLAPEYEKAAKELSKRSPPIPLAKVDATAETDLAKRFDVSGYPTLKIFRKGRPYDYNGPREKYGIVDYMIEQSGPPSKEILTLKQVQEFLKDGDDVIIIGVFKGESDPAYQQYQDAANNLREDYKFHHTFSTEIAKFLKVSQGQLVVMQPEKFQSKYEPRSHMMDVQGSTQDSAIKDFVLKYALPLVGHRKVSNDAKRYTRRPLVVVYYSVDFSFDYRAATQFWRSKVLEVAKDFPEYTFAIADEEDYAGEVKDLGLSESGEDVNAAILDESGKKFAMEPEEFDSDTLREFVTAFKKGKLKPVIKSQPVPKNNKGPVKVVVGKTFDSIVMDPKKDVLIEFYAPWCGHCKQLEPVYNSLAKKYKGQKGLVIAKMDATANDVPSDRYKVEGFPTIYFAPSGDKKNPVKFEGGDRDLEHLSKFIEEHATKLSRTKEEL
B6: ERdj5 (protein, UniProt Q8IXB1 33-793)
chain: DQDFYSLLGVSKTASSREIRQAFKKLALKLHPDKNPNNPNAHGDFLKINRAYEVLKDEDLRKKYDKYGEKGLEDNQGGQYESWNYYRYDFGIYDDDPEIITLERREFDAAVNSGELWFVNFYSPGCSHCHDLAPTWRDFAKEVDGLLRIGAVNCGDDRMLCRMKGVNSYPSLFIFRSGMAPVKYHGDRSKESLVSFAMQHVRSTVTELWTGNFVNSIQTAFAAGIGWLITFCSKGGDCLTSQTRLRLSGMLDGLVNVGWMDCATQDNLCKSLDITTSTTAYFPPGATLNNKEKNSILFLNSLDAKEIYLEVIHNLPDFELLSANTLEDRLAHHRWLLFFHFGKNENSNDPELKKLKTLLKNDHIQVGRFDCSSAPDICSNLYVFQPSLAVFKGQGTKEYEIHHGKKILYDILAFAKESVNSHVTTLGPQNFPANDKEPWLVDFFAPWCPPCRALLPELRRASNLLYGQLKFGTLDCTVHEGLCNMYNIQAYPTTVVFNQSNIHEYEGHHSAEQILEFIEDLMNPSVVSLTPTTFNELVTQRKHNEVWMVDFYSPWCHPCQVLMPEWKRMARTLTGLINVGSIDCQQYHSFCAQENVQRYPEIRFFPPKSNKAYHYHSYNGWNRDAYSLRIWGLGFLPQVSTDLTPQTFSEKVLQGKNHWVIDFYAPWCGPCQNFAPEFELLARMIKGKVKAGKVDCQAYAQTCQKAGIRAYPTVKFYFYERAKRNFQEEQINTRDAKAIAALISEKLETLRNQGKRNKDEL
B7: PLOD1 (protein, UniProt Q02809 19-727)
chain: KGDAKPEDNLLVLTVATKETEGFRRFKRSAQFFNYKIQALGLGEDWNVEKGTSAGGGQKVRLLKKALEKHADKEDLVILFADSYDVLFASGPRELLKKFRQARSQVVFSAEELIYPDRRLETKYPVVSDGKRFLGSGGFIGYAPNLSKLVAEWEGQDSDSDQLFYTKIFLDPEKREQINITLDHRCRIFQNLDGALDEVVLKFEMGHVRARNLAYDTLPVLIHGNGPTKLQLNYLGNYIPRFWTFETGCTVCDEGLRSLKGIGDEALPTVLVGVFIEQPTPFVSLFFQRLLRLHYPQKHMRLFIHNHEQHHKAQVEEFLAQHGSEYQSVKLVGPEVRMANADARNMGADLCRQDRSCTYYFSVDADVALTEPNSLRLLIQQNKNVIAPLMTRHGRLWSNFWGALSADGYYARSEDYVDIVQGRRVGVWNVPYISNIYLIKGSALRGELQSSDLFHHSKLDPDMAFCANIRQQDVFMFLTNRHTLGHLLSLDSYRTTHLHNDLWEVFSNPEDWKEKYIHQNYTKALAGKLVETPCPDVYWFPIFTEVACDELVEEMEHFGQWSLGNNKDNRIQGGYENVPTIDIHMNQIGFEREWHKFLLEYIAPMTEKLYPGYYTRAQFDLAFVVRYKPDEQPSLMPHHDASTFTINIALNRVGVDYEGGGCRFLRYNCSIRAPRKGWTLMHPGRLTHYHEGLPTTRGTRYIAVSFVDP

Target: HA-RI332, C-terminally truncated form of ribophorin-I with an HA epitope
Experiment: affinity purification with mass spectrometry

binding, binds:
B1
B2
B3
B4
B5
B6
B7
